These results are taken from PMC7901769.

Protein sequences, listed by entry. Tags and fused reporters are not part of them.
UniProt O00399: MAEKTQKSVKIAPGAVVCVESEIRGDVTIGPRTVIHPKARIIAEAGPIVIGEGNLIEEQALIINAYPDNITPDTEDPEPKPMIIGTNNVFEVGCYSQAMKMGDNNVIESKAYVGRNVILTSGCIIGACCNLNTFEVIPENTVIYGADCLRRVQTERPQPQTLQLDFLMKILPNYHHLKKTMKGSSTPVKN

Results are given in words; binding and its absence hold for the method and conditions named. Some entries that bind do so weakly or less than the wild type.

The target in experiment [1] is T1, human TMEM39A second cytoplasmic loop domain (337-420 a.a.) (human) (UniProt Q9NV64).
T1 sequence: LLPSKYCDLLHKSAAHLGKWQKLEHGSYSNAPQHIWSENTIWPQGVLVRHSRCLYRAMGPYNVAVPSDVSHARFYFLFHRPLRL
Kind of experiment: two-hybrid; verification by co-transformation of bait (pGBKT7) and prey (pGADT7) vectors, yeast colony growth.

Experiment [2] addresses T1, human TMEM39A second cytoplasmic loop domain (337-420 a.a.) (human). Kind of experiment: two-hybrid; library screen: TMEM39A loop domains in pGBKT7 as bait against a normalized universal human cDNA library (Clontech), Matchmaker Gold Yeast Two-Hybrid System.

In the case of “human DCTN6 full length (1-190 a.a.) (from UniProt O00399 1-190)”, the binding entry in experiment [1] and in experiment [2] was “binds” in each case.
